Some results were stated once for a whole list of compounds, not compound by compound. Some ranges recur; such a range may be that of the whole group of compounds.
Assay: Serum concentration of androgen analogs after intravenous injection, by LC/MS
Type: in vivo, mouse
Conditions: 50 μg intravenous, C57/B6 mice, samples at 1, 2, 4 and 8 hours, n=4
Procedure: FIG. 8. C57B6 mice were intravenously injected with 50 μg of IVMDHT, IVNDHT, and IVDHT. Blood samples were collected at 1, 2, 4, and 8 hours (n=4) and the serum concentrations of the compounds were analyzed by liquid chromatography mass spectrometry. With reference to 2 hours on FIG. 8, the upper line represents IVMDHT; the middle line represents IVNDHT, and the lower line represents IVDHT.
To assess the stability of different androgen analogs, 50 μg of IVDHT, IVNDHT, and IVMDHT was intravenously injected into C57/B6 mice. Blood samples were collected from the mice at 1, 2, 4, and 8 hours and analyzed by liquid chromatography/mass spectrometry (n=4).

SMILES | serum concentration [ng/mL]
C[C@]12CCC(=O)C[C@@H]1C[C@@H](/C=C/I)[C@@H]1[C@@H]2CC[C@]2(C)[C@@H](O)CC[C@@H]12 [IVDHT, 7α-(E-2′-iodovinyl)-5α-dihydrotestosterone] | 40 to 60
C[C@]12CCC(=O)C[C@@H]1C[C@@H](/C=C/I)[C@@H]1[C@@H]2CC[C@@]2(C)[C@H]1CC[C@]2(C)O [IVMDHT, 7α-(E-2′-iodovinyl)-17α-methyl-5α-dihydrotestosterone] | 40 to 60
C[C@]12CC[C@@H]3C4CCC(=O)C[C@@H]4C[C@@H](/C=C/I)[C@H]3[C@@H]1CC[C@@H]2O (stereo partly drawn) [IVNDHT, 7α-(E-2′-iodovinyl)-19-nor-5α-dihydrotestosterone] | 40 to 60

Source: US11541062B2, “Methods of treating advanced prostate cancer” (priority 2017, dated 2023)
